One substance from publication PMC8394796 can be followed below.

Chains of the proteins cited; added tags and fusions are not shown. Residues count along the entry.
UniProt P40763: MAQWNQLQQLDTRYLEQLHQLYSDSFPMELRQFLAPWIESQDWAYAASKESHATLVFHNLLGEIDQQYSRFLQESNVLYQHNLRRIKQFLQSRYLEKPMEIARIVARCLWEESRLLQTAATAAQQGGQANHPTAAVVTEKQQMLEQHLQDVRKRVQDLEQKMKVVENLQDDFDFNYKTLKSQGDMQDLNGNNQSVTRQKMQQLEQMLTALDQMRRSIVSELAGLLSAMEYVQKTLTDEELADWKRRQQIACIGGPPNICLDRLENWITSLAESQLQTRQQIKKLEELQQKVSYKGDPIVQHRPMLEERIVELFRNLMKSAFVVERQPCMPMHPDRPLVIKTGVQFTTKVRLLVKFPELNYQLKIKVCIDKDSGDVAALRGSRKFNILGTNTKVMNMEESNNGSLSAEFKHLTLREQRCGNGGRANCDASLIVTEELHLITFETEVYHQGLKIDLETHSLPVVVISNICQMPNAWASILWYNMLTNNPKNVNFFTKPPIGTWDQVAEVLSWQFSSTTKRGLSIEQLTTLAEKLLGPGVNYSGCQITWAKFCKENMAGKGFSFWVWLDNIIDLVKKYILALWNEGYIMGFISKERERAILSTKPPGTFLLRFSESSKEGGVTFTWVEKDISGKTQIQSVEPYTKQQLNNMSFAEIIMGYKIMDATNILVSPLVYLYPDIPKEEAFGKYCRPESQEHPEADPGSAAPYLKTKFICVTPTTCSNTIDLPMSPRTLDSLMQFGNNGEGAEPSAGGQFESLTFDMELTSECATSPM
UniProt Q9NZQ7, residues 19-290: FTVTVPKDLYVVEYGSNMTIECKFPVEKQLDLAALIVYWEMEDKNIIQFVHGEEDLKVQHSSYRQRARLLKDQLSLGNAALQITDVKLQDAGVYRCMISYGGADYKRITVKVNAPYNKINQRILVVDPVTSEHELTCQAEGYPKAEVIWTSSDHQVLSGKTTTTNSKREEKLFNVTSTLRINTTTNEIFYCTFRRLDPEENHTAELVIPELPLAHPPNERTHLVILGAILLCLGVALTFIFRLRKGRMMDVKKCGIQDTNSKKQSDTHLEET

No constants are given. Whether binding was seen depends on the method and setting. In cells and extracts the contact can be indirect. Some results given as binding are weak or reduced against the parent protein; the word gives no strength.

The experiment has as its target signal transducer and activator of transcription 3 (STAT3) (human (endogenous in DU145)) (UniProt P40763). Kind of experiment: co-IP; DU145 cell lysates (cells untreated or treated with compound K for 24 h) immunoprecipitated with anti-STAT3 antibody or normal IgG, Protein A/G sepharose beads; immunoblot for PD-L1 and STAT3. Background: Immunoblotting shows a protein as a band on a membrane.

Turning to “programmed death-ligand 1 (PD-L1) (from UniProt Q9NZQ7 19-290)”, the binding result was “binds”.
